Data: patent US20030073826A1 (priority 2001, published 2003)
Counter-ions that a name gives are not always drawn. Like-named read-outs stand apart in the source and are kept apart here.

Legend:
[1] = background statement; cited from earlier work
[2] = for water content at the start of the DMSG run: ambient humidity, sample as received; for moisture sorbed at 80%RH: second scan
Description: Approximately 10 mg samples were used in the balance, samples were run as received. The humidity was set at ambient conditions on the day analysis began. […] The scan rate was 3% RH/step. The mass was measured every two minutes and an equilibrium window of 5 points within 0.001 mg. […] The Visual Basic program dmsgscn2.exe was used to control the data collection and export the information to an Excel spreadsheet.
(§1) The humidity was set at ambient conditions on the day analysis began. […] The mass was measured every two minutes and an equilibrium window of 5 points within 0.001 mg.
as §1

[3] = upon trituration in aqueous media, or at stressed humidity conditions

## CCC[C@@H]1C[C@@H](C(=O)N[C@@H]([C@H]2O[C@H](SC)[C@H](O)[C@@H](O)[C@H]2O)[C@H](C)Cl)N(C)C1 [Clindamycin hydrochloride, clindamycin hydrochloride]
[1]
  absorption following oral administration: rapid and nearly complete

## CCC[C@@H]1C[C@@H](C(=O)NC(C(C)Cl)C2OC(SC)C(O)C(O)C2O)N(C)C1 (some centres unmarked) [Form I, clindamycin free base]
[2]
  water content at the start of the DMSG run: approximately 4%

## CCC[C@@H]1C[C@@H](C(=O)NC(C(C)Cl)C2OC(SC)C(O)C(O)C2O)N(C)C1 (some centres unmarked) [Form II, clindamycin free base]
[2]
  water content at the start of the DMSG run: approximately 2%
[3]
  solid form conversion: will convert to Form I

## CCC[C@@H]1C[C@@H](C(=O)NC(C(C)Cl)C2OC(SC)C(O)C(O)C2O)N(C)C1 (some centres unmarked) [Form III, clindamycin free base]
[2]; 10%-80% RH, 4-scan DMSG
  water content retained at moderate humidity: about 4.5%
[2]
  water content at the start of the DMSG run: approximately 4.5%

## CCC[C@@H]1C[C@@H](C(=O)NC(C(C)Cl)C2OC(SC)C(O)C(O)C2O)N(C)C1 (some centres unmarked) [clindamycin free base, reference compound]
[2]; amorphous material formed from Form II
  moisture sorbed at 80%RH: approximately 2%
[2]; amorphous material formed from Form III
  moisture sorbed at 80%RH: about 6%
